The values below come from article doi:10.1101/2023.07.15.549172.

No constants are given. Whether binding was seen depends on the method and setting. In cells and extracts the contact can be indirect. For part of these data: Binding can be weak; no strength is given. Where a sequence is shown, tags or fusion partners need not be part of it.

In assay [1] the target is Cw9a (bait of the co-immunoprecipitation in Supplementary Fig. 1h) (Schizosaccharomyces pombe (natural isolate CBS5557)). Kind of assay: co-IP.
The target in assay [2] is GST-Cw9a(1-104) (Schizosaccharomyces pombe (natural isolate CBS5557)). Kind of assay: pull-down.
Assay [3] addresses GST-Cw9a(1-104) 3PY* (Schizosaccharomyces pombe (natural isolate CBS5557)). Put plainly: pull-down.
Assay [4] concerns the target GST-Cw9a(1-104) PY1* (Schizosaccharomyces pombe (natural isolate CBS5557)). Kind of assay: pull-down.
Assay [5] concerns the target GST-Cw9a(1-104) PY1*PY2* (Schizosaccharomyces pombe (natural isolate CBS5557)). Kind of assay: pull-down.
The target of assay [6] is GST-Cw9a(1-104) PY1*PY3* (Schizosaccharomyces pombe (natural isolate CBS5557)). Put plainly: pull-down.
Assay [7] deals with GST-Cw9a(1-104) PY2* (Schizosaccharomyces pombe (natural isolate CBS5557)). Put plainly: pull-down.
Assay [8] concerns the target GST-Cw9a(1-104) PY2*PY3* (Schizosaccharomyces pombe (natural isolate CBS5557)). Kind of assay: pull-down.
The target of assay [9] is GST-Cw9a(1-104) PY3* (Schizosaccharomyces pombe (natural isolate CBS5557)). Kind of assay: pull-down.
The target in assay [10] is GST-Cw9a(1-23) (Schizosaccharomyces pombe (natural isolate CBS5557)). Put plainly: pull-down.
In assay [11] the target is GST-Cw9a(24-52) (Schizosaccharomyces pombe (natural isolate CBS5557)). Put plainly: pull-down.
Assay [12] has as its target GST-Cw9a(53-104) (Schizosaccharomyces pombe (natural isolate CBS5557)). Put plainly: pull-down.
Assay [13] concerns the target GST-tagged Cw9a(1-52) (Schizosaccharomyces pombe (natural isolate CBS5557)). Put plainly: pull-down.

B1: 3×FLAG-tagged Pub3 (enzyme, UniProt O14326 1-786)
chain: MEQGAKRVRFYIVAADGLSKRDLFRQPDPFAILTVDGEQTHTTKVIKKSVNPYWNEGFEVTVKPSSVISIRLFDQKKFKKKDQGFLGLVSFRMREVGSFRSNREVSLTRPLKKSSTTNLSVLGNLVLKVAPSKIRAPAGNHSSTTANRTTSTPTTTTARTTRTTPRPTATTNTSNQSTSNSTRNGTSAATSNGTGTGAGTGASHRSSPVTNRQTNNTSALSNSNAHIMSSFEDQYGRLPPGWERRADSLGRTYYVDHNTRTTTWTRPASSTNPVHNTSSDSQRLNHQNRHLPDDSNPSLMQSDSGNDLPFGWEMRYTDTGRPYFVDHNTRTTTWVDPRNPLVRPNGGSSTVGSLMQPQSLSHLGPLPSGWEMRLTNSARVYFVDHNTKTTTWDDPRLPSALDQDVPQYKCDFRRKLIYFRSQPGMRPLPGQCNVKVRRDHIFEDSYAEIMRYSAHDLKKRLMIRFDGEDGLDYGGLSREFFFLLSHKMFDPIYCLFEYSAVDNYTLQINPHSSINPEHLNYFRFIGRVIGLAIFHRRFLDAFFVVSLYKKLLRKKVSLADMESIDAEFYRSLKWVLENDITGILDLTFSVEEDHFGEVRTVELITNGENIEVTEENKKKYVDLVTEWRVSKRVEQQFNAFYSGFVELVSPDLVNVFDERELELLIGGISDVDVEDWKSHTEYRTYIATDPVIKWFWEIIAGWKNEDRSKLLQFATGTSRIPVNGFRDLQGSDGPRKFTIEKAGTPDQLPVAHTCFNRLDLPDYPSKDTLHEKLSLAVENTVGFGNE
As to B1, the binding result in [1] is given as “binds”; in assay [2], “binds”; in [3], “no binding”; in [4], “binds”; in [5] it was “binds weakly”; in [6], “binds”. The binding result in assay [7] is “binds”; in assay [8] it was “binds weakly”; in assay [9] it was “binds”; in assay [10], “no binding”; in [11] it was “binds”; in assay [12], “binds weakly”. Besides, the binding result in assay [13] is “binds”.

B2: 3×FLAG-tagged Pub2 (enzyme, UniProt Q9UTG2 1-671)
chain: MENIRFEVQLTILHVEGLWKNGLLRSLKPYLLISVDDDQFIKTNVASGTLRLSWGFTQKLTVSPQSIILLQLFDEKQKNETSDGFVGLGAAVVNSFLPFNNPKDDYKTRITLRSPSGSYRGSVVCLFKRSKFLPEELPADKSQICTDIIDDASGCAWETRIDEFGHVYYLKSPQLSVISAISHEKLENLTPKQLKEVFSQFLFNNQSKSSLKINLEYKVIKHLLEHYPLALSVRQQVAVEKGPLPAGWEMRLSEDYHVYFVDHSTKTTTWSDPRDNVVASDSVSENTDSIQQINDEYQRKIAYMYDRPEMAVNDAQLQLKVSRATTFEDAYDIISKLSVSDMKKKLLIRFRNEDGLDYGGVSREFFYILSHAIFNPGYSLFEYATDDNYGLQISPLSSVNPDFRSYFRFVGRVMGLAIYHRRYLDVQFVLPFYKRILQKPLCLEDVKDVDEVYYESLKWIKNNDVDESLCLNFSVEENRFGESVTVDLIPNGRNIAVNNQNKMNYLKALTEHKLVTSTEEQFNALKGGLNELIPDSVLQIFNENELDTLLNGKRDIDVQDWKRFTDYRSYTETDDIVIWFWELLSEWSPEKKAKLLQFATGTSRLPLSGFKDMHGSDGPRKFTIEKVGHISQLPKAHTCFNRLDIPPYNSKEELEQKLTIAIQETAGFGTE
For B2, the binding entry in [1] and in assay [13] was “binds weakly” in each case.
